Test results published in patent US20220304950A1, “[…] THE TREATMENT OF PATIENTS WITH MAJOR DEPRESSIVE DISORDER, INCLUDING SUICIDALITY” (JANSSEN PHARMACEUTICALS, INC., priority 2019, published 2022).

Tested on: adult patients with MDD assessed to be at imminent risk for suicide
Test: Treatment disposition, Study 2 (Example 5)
Type: in vivo, human
Conditions: Esk 84 mg + SOC, double-blind phase, all randomized
Description: A total of 273 subjects were screened across 50 sites in 12 countries throughout the study period. Of those, 230 subjects were randomized to 1 of 2 treatment groups in a 1:1 ratio (115 in esketamine 84 mg+SOC and 115 in placebo+SOC). Randomization was stratified by study center and by the physician's assessment of the subject's need of standard of care antidepressant treatment (i.e., antidepressant monotherapy or an antidepressant plus augmentation therapy); the standard of care was determined prior to randomization on Day 1. […] The mean age was 40.8 years, ranging from 18 to 64 years.

SMILES: CN[C@]1(c2ccccc2Cl)CCCCC1=O [esketamine, (S)-2-(2-chlorophenyl)-2-(methylamino)cyclohexanone]
- Completed study treatment, subjects %: 78.3%
- Discontinuation due to lack of efficacy, subjects %: 1.7%
- Discontinuation: lost to follow-up, subjects %: 0.9%
- Discontinuation: other reason, subjects %: 2.6%
- Discontinuation: withdrawal by subject, %: 8.7%
- Discontinued study treatment, subjects %: 21.7%
